From paper doi:10.1101/2022.10.16.511936
No constants are given. Whether binding was seen depends on the method and setting. In cells and extracts the contact can be indirect.

Molecular target: T1, CLV1, rBiFC construct (Arabidopsis) (UniProt Q9SYQ8)
T1 sequence: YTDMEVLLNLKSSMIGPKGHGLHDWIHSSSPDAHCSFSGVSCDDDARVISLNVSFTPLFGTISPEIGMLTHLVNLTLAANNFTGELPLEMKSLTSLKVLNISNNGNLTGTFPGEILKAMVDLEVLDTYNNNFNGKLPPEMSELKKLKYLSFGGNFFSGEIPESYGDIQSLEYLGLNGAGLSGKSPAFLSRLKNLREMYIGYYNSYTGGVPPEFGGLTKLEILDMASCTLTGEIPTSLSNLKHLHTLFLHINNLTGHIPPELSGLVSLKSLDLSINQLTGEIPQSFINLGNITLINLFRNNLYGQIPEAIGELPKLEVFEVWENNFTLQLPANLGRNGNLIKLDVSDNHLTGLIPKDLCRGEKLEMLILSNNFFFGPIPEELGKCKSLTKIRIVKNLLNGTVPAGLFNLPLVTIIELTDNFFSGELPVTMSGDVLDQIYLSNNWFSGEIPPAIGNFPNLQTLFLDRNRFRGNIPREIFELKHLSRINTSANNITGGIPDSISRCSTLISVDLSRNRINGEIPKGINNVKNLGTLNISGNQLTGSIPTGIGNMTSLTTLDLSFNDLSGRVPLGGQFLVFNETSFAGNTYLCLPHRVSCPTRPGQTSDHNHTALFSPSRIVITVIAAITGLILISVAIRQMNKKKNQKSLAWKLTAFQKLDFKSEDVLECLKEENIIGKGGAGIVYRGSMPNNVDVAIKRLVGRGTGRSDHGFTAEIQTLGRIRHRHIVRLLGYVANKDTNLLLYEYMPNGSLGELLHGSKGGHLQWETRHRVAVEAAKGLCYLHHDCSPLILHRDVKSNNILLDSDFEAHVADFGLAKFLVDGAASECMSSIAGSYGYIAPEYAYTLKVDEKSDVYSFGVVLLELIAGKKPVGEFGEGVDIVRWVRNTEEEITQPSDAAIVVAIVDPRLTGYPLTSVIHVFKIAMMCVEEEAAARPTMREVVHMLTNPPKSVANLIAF
Experiment: split reporter

- binding: no binding
B1: AP-2M, rBiFC construct (protein, UniProt O23140 1-438)
chain: MPVAASAIYFLNLRGDVLINRTYRDDVGGNMVDAFRTHIMQTKELGNCPVRQIGGCSFVYMRISNVYIVIVVSSNANVACGFKFVVEAVALFKSYFGGAFDEDAIRNNFVLIYELLDEIMDFGYPQNLSPEILKLYITQEGVRSPFSSKPKDKPVPNATLQVTGAVGWRREGLAYKKNEVFLDIVESVNLLMSSKGNVLRCDVTGKVLMKCFLSGMPDLKLGLNDKIGLEKESEMKSRPAKSGKTIELDDVTFHQCVNLTRFNSEKTVSFVPPDGEFELMKYRITEGVNLPFRVLPTIKELGRTRMEVNVKVKSVFGAKMFALGVVVKIPVPKQTAKTNFQVTTGRAKYNPSIDCLVWKIRKFPGQTESTLSAEIELISTMGEKKSWTRPPIQMEFQVPMFTASGLRVRFLKVWEKSGYNTVEWVRYITKAGSYEIRC
